Test results published in the supplement of paper PMC6078165.
Values are relative to the signal before dosing, not to a vehicle control; the signal also falls without drug.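 Labels refer to human fibroblasts, largely primary: uterine (C12385, HUF), lung (H6013), bone (Hs27A), adrenal (HADF), skin (WS1), plus mammary HMF and breast cancer-associated Hs343T. Cancer lines are basal-like or mesenchymal-like triple-negative breast cancer. The paper counts as hits responses shifting over 3x the replicate standard deviation. The tissue of the other fibroblasts is not given here.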

Test system: MDAMB436
Assay: relative JC-1 red fluorescence (viability) vs pre-drug, coculture with fibroblast (fraction); higher = more viable cancer cells
Procedure: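 JC-1 labelled TNBC cells cocultured 1:1 (1,500 cells each) with CellTrace Violet stained primary or stromal fibroblasts in 384-well plates in FluoroBrite medium, treated with one of 42 anticancer drugs at 0.1, 1, 10 or 100 uM. JC-1 red fluorescence (mitochondrial integrity in cancer cells only) was read by plate reader every 8 h for 72 h. Values are normalised to each well's pre-drug value. The stock of one drug was tenfold lower, so its dose labels may be too high.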

CC(C)(C#N)c1cc(Cn2cncn2)cc(C(C)(C)C#N)c1 [Anastrozole]
relative JC-1 red fluorescence
Conditions | 8 h | 16 h | 24 h | 32 h | 40 h | 48 h | 56 h | 64 h | 72 h
0.1 µM, coculture fibroblast: C12385 | 0.758 | 0.675 | 0.64 | 0.548 | 0.501 | 0.473 | 0.454 | 0.439 | 0.431
0.1 µM, coculture fibroblast: H6013 | 0.768 | 0.732 | 0.717 | 0.706 | 0.695 | 0.719 | 0.682 | 0.667 | 0.635
0.1 µM, coculture fibroblast: H6019 | 0.7302 | 0.6761 | 0.638 | 0.5513 | 0.507 | 0.471 | 0.434 | 0.401 | 0.371
0.1 µM, coculture fibroblast: H6076 | 0.707 | 0.643 | 0.609 | 0.578 | 0.562 | 0.539 | 0.548 | 0.538 | 0.531
0.1 µM, coculture fibroblast: H6231 | 0.71214 | 0.635 | 0.6529 | 0.5825 | 0.5736 | 0.547 | 0.545 | 0.527 | 0.508
0.1 µM, coculture fibroblast: HADF | 0.806 | 0.7328 | 0.709 | 0.676 | 0.66 | 0.679 | 0.626 | 0.62 | 0.584
0.1 µM, coculture fibroblast: HCFa | 0.758 | 0.715 | 0.685 | 0.646 | 0.617 | 0.622 | 0.558 | 0.541 | 0.49
0.1 µM, coculture fibroblast: HCPF | 0.7667 | 0.695 | 0.669 | 0.6 | 0.5845 | 0.551 | 0.528 | 0.51 | 0.493
0.1 µM, coculture fibroblast: HHSteC | 0.807 | 0.814 | 0.793 | 0.769 | 0.757 | 0.775 | 0.708 | 0.685 | 0.627
0.1 µM, coculture fibroblast: HMF | 0.704 | 0.6379 | 0.6057 | 0.5605 | 0.547 | 0.509 | 0.516 | 0.496 | 0.495
0.1 µM, coculture fibroblast: HPFa | 0.882 | 0.81 | 0.757 | 0.695 | 0.663 | 0.656 | 0.577 | 0.542 | 0.475
0.1 µM, coculture fibroblast: HUF | 0.83 | 0.694 | 0.659 | 0.584 | 0.535 | 0.509 | 0.484 | 0.475 | 0.468
0.1 µM, coculture fibroblast: Hs5 | 0.746 | 0.696 | 0.681 | 0.634 | 0.616 | 0.579 | 0.586 | 0.55 | 0.537
0.1 µM, coculture fibroblast: Hs27A | 0.88 | 0.841 | 0.84 | 0.841 | 0.836 | 0.775 | 0.782 | 0.798 | 0.729
0.1 µM, coculture fibroblast: Hs343T | 0.754 | 0.669 | 0.61 | 0.553 | 0.522 | 0.49 | 0.478 | 0.46 | 0.45
0.1 µM, coculture fibroblast: WS1 | 0.7461 | 0.66 | 0.611 | 0.515 | 0.473 | 0.436 | 0.411 | 0.381 | 0.37
1 µM, coculture fibroblast: C12385 | 0.812 | 0.704 | 0.664 | 0.581 | 0.529 | 0.5 | 0.479 | 0.461 | 0.452
1 µM, coculture fibroblast: H6013 | 0.872 | 0.792 | 0.771 | 0.771 | 0.76 | 0.778 | 0.739 | 0.724 | 0.681
1 µM, coculture fibroblast: H6019 | 0.7454 | 0.63266 | 0.602 | 0.528 | 0.485 | 0.471 | 0.436 | 0.406 | 0.377
1 µM, coculture fibroblast: H6076 | 0.782 | 0.653 | 0.645 | 0.616 | 0.595 | 0.581 | 0.599 | 0.61 | 0.606
1 µM, coculture fibroblast: H6231 | 0.7847 | 0.7 | 0.674 | 0.634 | 0.602 | 0.574 | 0.545 | 0.514 | 0.487
1 µM, coculture fibroblast: HADF | 0.826 | 0.746 | 0.694 | 0.655 | 0.627 | 0.631 | 0.579 | 0.569 | 0.532
1 µM, coculture fibroblast: HCFa | 0.7872 | 0.71 | 0.665 | 0.642 | 0.612 | 0.628 | 0.564 | 0.547 | 0.493
1 µM, coculture fibroblast: HCPF | 0.806 | 0.702 | 0.648 | 0.6023 | 0.574 | 0.537 | 0.507 | 0.487 | 0.462
1 µM, coculture fibroblast: HHSteC | 0.912 | 0.818 | 0.779 | 0.77 | 0.759 | 0.751 | 0.706 | 0.673 | 0.611
1 µM, coculture fibroblast: HMF | 0.757 | 0.645 | 0.638 | 0.611 | 0.592 | 0.564 | 0.561 | 0.559 | 0.545
1 µM, coculture fibroblast: HPFa | 0.89 | 0.829 | 0.802 | 0.767 | 0.752 | 0.757 | 0.676 | 0.645 | 0.561
1 µM, coculture fibroblast: HUF | 0.821 | 0.716 | 0.679 | 0.608 | 0.552 | 0.522 | 0.497 | 0.475 | 0.461
1 µM, coculture fibroblast: Hs5 | 0.785 | 0.68795 | 0.6744 | 0.6256 | 0.617 | 0.578 | 0.585 | 0.568 | 0.554
1 µM, coculture fibroblast: Hs27A | 0.76494 | 0.675 | 0.622 | 0.599 | 0.562 | 0.608 | 0.525 | 0.501 | 0.431
1 µM, coculture fibroblast: Hs343T | 0.751 | 0.615 | 0.57 | 0.5296 | 0.5 | 0.468 | 0.4591 | 0.4493 | 0.4436
1 µM, coculture fibroblast: WS1 | 0.8008 | 0.694 | 0.6409 | 0.5663 | 0.5209 | 0.5 | 0.474 | 0.447 | 0.434
